For at least one entry, the source does not settle the construct or the ends of the probe. At least one verdict rests on a figure or table, not on a statement of the authors.
Experiments:
Experiment in all cases: fluorescence anisotropy
Settings in all cases: 1 uM protein, 10 nM DNA, 50 uM sinefungin, DNA stays bound with Fos-1 ecRNA; 50 mM KH2PO4/K2HPO4 pH 7.8, 1 mM EDTA, 1 mM DTT, 0.2 mg/ml BSA, 20 mM NaCl, 50 uM sinefungin (printed 'μm'), room temperature, 5 min; recombinant protein; residues 634-912; protein details: His (pET28a, nickel column); label: 5' 6-FAM top strand
DNMT3A_CD R729A (human) = DNMT3A_CD R729A (human) (UniProt Q9Y6K1)
DNMT3A_CD WT (human) = DNMT3A_CD WT (human) (UniProt Q9Y6K1)
DNMT3A_CD R736A (human) = DNMT3A_CD R736A (human) (UniProt Q9Y6K1)

Measured: binding result

TGGATATCTAGGGGCGCTATGATATCT (double strand) [GCbox30 duplex]
binds: DNMT3A_CD R729A (human) | DNMT3A_CD WT (human) | DNMT3A_CD R736A (human)

Reference: publication PMC11951571
